Data source: PubChem BioAssay AID743454 (Peter MacCallum Cancer Centre, 2014)

Screen: 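Knock-downs lowering viability or raising caspase 3/7 activity in vorinostat-treated resistant cells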 (primary screen)
Cells: human HCT116-VR colon cancer cells, selected for vorinostat resistance
Reagent: siRNA pool against human genes, 40 nM siRNA pool
Timing: vorinostat for 24 h, read-out about 72 h after transfection
Treatment: vorinostat at 2.5 µM final
Read-out: 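Two measures, CellTiter-Fluor viability and luminescent caspase 3/7 activity, each as fold change against same-plate mock wells, mean of duplicates, then screen-wide robust z-score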
Direction: viability robust z-score: higher = more viable cells than screen typical; caspase robust z-score: higher = more caspase 3/7 activity than screen typical
Active means: 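a knock-down is a hit when classed RV1 or RV2 for lowered viability, or CA1 or CA2 for caspase activation; those lethal without drug were dropped; hits were retested singly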
In all, the deposit lists about 18,000 reagents; this is a random part of them. 450 of all reagents (2.5%) were called active. 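Single biological run; no consistent viability z cut-off exists, so the class columns, not z-scores, define the calls.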 Entries without a mark were called inactive.

no.	Gene	viability hit class	caspase hit class	viability robust z-score	caspase robust z-score
1	PPP2R3B	no change	no change	-3.75	-1.18
2	COPB2	no change	no change	-3.95	3.3
3	TNFRSF12A	no change	no change	0.56	2.14
4	LMBR1L	no change	no change	-0.03	0.22
5	TAS2R14	no change	no change	-3.75	1.15
6	PPARGC1A	no change	no change	-0.08	-1.18
7	OR4F29	no change	no change	-0.02	0.18
8	PYGM	no change	no change	1.83	1
9	ENTPD3	no change	no change	-1.12	2.7
10	SLITRK4	no change	no change	0.55	-0.39
11	RP2	no change	no change	-0.63	-0.38
12	CHI3L1	no change	no change	-0.19	-0.84
13	CXCL8	no change	no change	-0.02	0.13
14	PTPRS	RV2 (reduced viability) (active)	no change	-3.38	-0.13
15	FSCN2	no change	no change	0.26	-0.56
16	CDK5RAP1	no change	no change	-1.46	3.2
17	ZSWIM3	no change	no change	-1.6	1
18	MAML1	no change	no change	0.75	-0.23
19	TARS2	no change	no change	0.74	0.72
20	OVCH1	no change	no change	0.22	-0.96
21	OR11A1	no change	no change	0.31	-0.29
22	FBXO4	no change	no change	-1.86	1.85
23	DGKD	no change	no change	0.2	0.22
24	ST8SIA1	no change	no change	-1.44	-0.72
25	CNBP	no change	no change	0.77	-0.29
26	TXNL1	no change	no change	0.97	0.28
27	RUNX1	no change	no change	-0.48	0.88
28	MAP1LC3A	no change	no change	1.08	1.43
29	TPD52L2	no change	no change	-1.27	3.57
30	OR5B2	no change	no change	1.15	1.07
31	FHIP2B	no change	no change	-0.05	-0.57
32	SARS1	no change	no change	-2.39	0.22
33	RAB6B	no change	no change	-0.24	-1
34	FITM2	no change	no change	0.12	-0.27
35	CORO1C	no change	no change	-1.36	3.88
36	XKR5	no change	no change	-0.22	-0.31
37	HNRNPD	no change	no change	-0.06	0.38
38	MRPL12	no change	no change	-0.7	0.36
39	STIM2	no change	no change	-0.8	0.04
40	CNEP1R1	no change	no change	-0.2	-0.49
41	PDE7B	no change	no change	0.58	0.76
42	BDNF	no change	no change	0.3	-1.04
43	LYG2	no change	no change	0.49	0
44	STN1	no change (active)	CA2 (caspase activation)	-1.08	8.4
45	CIDEC	no change	no change	-0.01	-0.16
46	TMEM170A	no change	no change	2.25	-0.76
47	DHFR	no change	no change	-0.34	-0.6
48	HSF1	no change	no change	0.01	1.07
49	GJA3	no change	no change	-1.72	0.82
50	ZNF141	no change	no change	-0.2	-0.4
51	DMAC2	no change	no change	-0.67	1.54
52	NBPF15	no change	no change	0.26	-1.02
53	CXCL2	no change	no change	-0.3	-0.72
54	FAAP24	no change	no change	0.66	0.21
55	NDST4	no change	no change	1.04	-0.68
56	PRF1	no change	no change	0.76	0.82
57	GSDMB	no change	no change	-0.04	1.03

Look-ups from the entries so far.
Entry for COPB2 in “caspase hit class”: no change
Entry of STN1 under “caspase robust z-score”: 8.4 (active)
